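A panel of P. falciparum strains inside erythrocytes is exposed to compounds for three days, then a DNA-binding dye reports the amount of parasite DNA. Each compound was titrated across a series from about 0.000037 to 29 µM. The number is the fitted AC50, the concentration giving a half-maximal change in signal; a lower value means higher potency, whether the curve shows a decrease or an increase. Calls follow the curve class and fit quality: every row here is inconclusive, covering signal-raising curves and weak, poorly fitted, partial or highest-dose-only inhibition curves.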

Values are in µM. Every entry below has the call inconclusive. Only part of the assay is shown, chiefly results filed as inconclusive. A potency from a partial, single-point or poor curve is only a rough figure. Some entries filed as inconclusive have a full curve.

structure	tested on / at	Potency (µM)	curve
C=CCN1CC(C(=O)N(CCCN(C)C)C(=O)NCC)CC2c3cccc4[nH]cc(c34)CC21 (stereo unspecified)	ECU	11.22	inhibitor, single point
C=CCN1CC(C(=O)N(CCCN(C)C)C(=O)NCC)CC2c3cccc4[nH]cc(c34)CC21 (stereo unspecified)	CP203	0.0151	inhibitor, full curve, poor fit
C=CCN1CC(C(=O)N(CCCN(C)C)C(=O)NCC)CC2c3cccc4[nH]cc(c34)CC21 (stereo unspecified)	ATS189	11.22	inhibitor, single point
C=CCN1CC(C(=O)N(CCCN(C)C)C(=O)NCC)CC2c3cccc4[nH]cc(c34)CC21 (stereo unspecified)	CP256	7.943	inhibitor, single point
C=CCN1CC(C(=O)N(CCCN(C)C)C(=O)NCC)CC2c3cccc4[nH]cc(c34)CC21 (stereo unspecified)	CP252	11.22	inhibitor, single point
C=CCN1CC(C(=O)N(CCCN(C)C)C(=O)NCC)CC2c3cccc4[nH]cc(c34)CC21 (stereo unspecified)	PC15	12.59	inhibitor, single point
C=CCN1CC(C(=O)N(CCCN(C)C)C(=O)NCC)CC2c3cccc4[nH]cc(c34)CC21 (stereo unspecified)	TAB165	12.59	inhibitor, single point
CN1CCc2cc(Cl)c(O)cc2[C@H]2c3ccccc3CC[C@@H]21	DIV30	12	inhibitor, partial curve
CN1CCc2cc(Cl)c(O)cc2[C@H]2c3ccccc3CC[C@@H]21	CP266	0.5358	inhibitor, full curve, poor fit
CN1CCc2cc(Cl)c(O)cc2[C@H]2c3ccccc3CC[C@@H]21	N140	11.22	inhibitor, single point
CN1CCc2cc(Cl)c(O)cc2[C@H]2c3ccccc3CC[C@@H]21	DIV17	7.569	inhibitor, partial curve
CN1CCc2cc(Cl)c(O)cc2[C@H]2c3ccccc3CC[C@@H]21	ATS189	12.59	inhibitor, single point
CN1CCc2cc(Cl)c(O)cc2[C@H]2c3ccccc3CC[C@@H]21	CP268	15.1	inhibitor, single point
CN1CCc2cc(Cl)c(O)cc2[C@H]2c3ccccc3CC[C@@H]21	CP203	7.569	inhibitor, partial curve
CN1CCc2cc(Cl)c(O)cc2[C@H]2c3ccccc3CC[C@@H]21	CP185	7.943	inhibitor, partial curve
CN1CCc2cc(Cl)c(O)cc2[C@H]2c3ccccc3CC[C@@H]21	CP252	10	inhibitor, single point
CN1CCc2cc(Cl)c(O)cc2[C@H]2c3ccccc3CC[C@@H]21	P94_40	8.912	inhibitor, single point
CN1CCc2cc(Cl)c(O)cc2[C@H]2c3ccccc3CC[C@@H]21	CP305	9.528	inhibitor, partial curve
CN1CCc2cc(Cl)c(O)cc2[C@H]2c3ccccc3CC[C@@H]21	CP269	9.528	inhibitor, partial curve
CN1CCc2cc(Cl)c(O)cc2[C@H]2c3ccccc3CC[C@@H]21	parasite line A	17.78	inhibitor, single point
CN1CCc2cc(Cl)c(O)cc2[C@H]2c3ccccc3CC[C@@H]21	CP291	16.94	inhibitor, single point
CN1CCc2cc(Cl)c(O)cc2[C@H]2c3ccccc3CC[C@@H]21	PC26	7.569	inhibitor, single point
CN1CCc2cc(Cl)c(O)cc2[C@H]2c3ccccc3CC[C@@H]21	CP194	15.1	inhibitor, single point
CN1CCc2cc(Cl)c(O)cc2[C@H]2c3ccccc3CC[C@@H]21	CP247	3.162	inhibitor, full curve
CN1CCc2cc(Cl)c(O)cc2[C@H]2c3ccccc3CC[C@@H]21	CP260	10	inhibitor, single point
CN1CCc2cc(Cl)c(O)cc2[C@H]2c3ccccc3CC[C@@H]21	CP256	12.59	inhibitor, single point
CN1CCc2cc(Cl)c(O)cc2[C@H]2c3ccccc3CC[C@@H]21	P93_24	12.59	inhibitor, partial curve
CN1CCc2cc(Cl)c(O)cc2[C@H]2c3ccccc3CC[C@@H]21	DIV14	12	inhibitor, partial curve
CN1CCc2cc(Cl)c(O)cc2[C@H]2c3ccccc3CC[C@@H]21	CP238	11.22	inhibitor, single point
CN1CCc2cc(Cl)c(O)cc2[C@H]2c3ccccc3CC[C@@H]21	3D7	12.59	inhibitor, single point
CN1CCc2cc(Cl)c(O)cc2[C@H]2c3ccccc3CC[C@@H]21	ECU	7.08	inhibitor, partial curve, poor fit
CN1CCc2cc(Cl)c(O)cc2[C@H]2c3ccccc3CC[C@@H]21	AA1029	7.08	inhibitor, partial curve
CN1CCc2cc(Cl)c(O)cc2[C@H]2c3ccccc3CC[C@@H]21	CP215	6.746	inhibitor, partial curve, poor fit
CN1CCc2cc(Cl)c(O)cc2[C@H]2c3ccccc3CC[C@@H]21	CP265	11.22	inhibitor, single point
CN1CCc2cc(Cl)c(O)cc2[C@H]2c3ccccc3CC[C@@H]21	AS120	10	inhibitor, single point

Some entries from above, unchanged:

{"structure": "CN1CCc2cc(Cl)c(O)cc2[C@H]2c3ccccc3CC[C@@H]21", "tested on / at": "P93_24", "Potency (µM)": "12.59", "curve": "inhibitor, partial curve"}
{"structure": "CN1CCc2cc(Cl)c(O)cc2[C@H]2c3ccccc3CC[C@@H]21", "tested on / at": "CP269", "Potency (µM)": "9.528", "curve": "inhibitor, partial curve"}
{"structure": "CN1CCc2cc(Cl)c(O)cc2[C@H]2c3ccccc3CC[C@@H]21", "tested on / at": "AA1029", "Potency (µM)": "7.08", "curve": "inhibitor, partial curve"}

The results are deposited in PubChem (AID504749; NCATS, 2011).